# PubChem BioAssay AID652243 | Drosophila RNAi Screening Center, 2013
# Purpose: 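Fly genes required for human androgen receptor driven transcription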 (primary screen)
# Cell system: Drosophila S2R+ cells
# Knock-down reagent: long dsRNA against Drosophila genes
# Duration: 72 h (48 h, then 24 h hormone)
# Conditions: synthetic androgen R1881 at 10 nM for 24 h
# Read-out: 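Firefly light from an androgen-responsive reporter and Renilla control light per well, raw and unnormalised, for each of two replicates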
# Direction: firefly reporter light: higher = more light from androgen-responsive reporter; Renilla control light: higher = more constitutive control signal (cell number, transfection)
# Active means: 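Hit when the log firefly-to-Renilla ratio dropped or increased by a fixed fold versus the mean of GFP or LacZ controls across duplicate plates; lowering cut given as 1.5 and as 3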
# Meaning of the calls: active = hit: reporter lowered or raised; inactive = no hit
# The screen tested about 24,000 reagents; below is a random part of those that have a named target and a result. Of all reagents, 246 (1%) were called active. 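Plates not normalised; calls are printed but the firefly/Renilla ratio behind them is not deposited; fold cut for lowering reported inconsistently.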 The raw values are shown without normalisation. Reagents against one gene are numbered here. Not stated in the record: the amount of reagent.
gene knocked down,reagent,"firefly reporter light, replicate 1","firefly reporter light, replicate 2","Renilla control light, replicate 1","Renilla control light, replicate 2",outcome
Uba3,1,8.97e5,7.99e5,2.04e6,2.12e6,inactive
Cpr47Ed,1,3.46e5,2.50e5,1.95e6,1.45e6,inactive
jub,1,7677,10572,1.13e5,1.86e5,active
jub,2,2.74e5,2.36e5,4.99e5,5.86e5,inactive
Pex19,1,7.76e5,6.69e5,2.19e6,1.45e6,inactive
twit,1,1.26e6,4.26e5,3.21e6,1.22e6,inactive
twit,2,4.35e5,4.43e5,1.01e6,1.29e6,inactive
pdm2,1,1.81e5,1.87e5,1.02e6,1.44e6,inactive
pdm2,2,1.44e5,1.78e5,9.63e5,1.22e6,inactive
CG8420,1,1.70e5,1.46e5,2.83e6,2.52e6,inactive
CdGAPr,1,78111,1.23e5,1.16e6,1.43e6,inactive
Cyt-c-p,1,1.19e5,1.43e5,1.85e6,2.02e6,inactive
Dip-C,1,44751,1.52e5,3.86e5,7.80e5,inactive
CkIIalpha-i3,1,3.89e5,7.95e5,1.43e6,1.44e6,inactive
Txl,1,84096,72674,1.61e6,1.34e6,inactive
CG34213,1,9.47e5,9.32e5,1.80e6,2.22e6,inactive
CG33111,1,1.40e5,1.71e5,2.03e6,1.88e6,inactive
CG33111,2,1.97e5,1.91e5,3.01e6,1.97e6,inactive
CG18231,1,3.25e5,2.18e5,1.87e6,2.26e6,inactive
Nek2,1,4.62e5,6.06e5,1.53e6,1.76e6,inactive
Nek2,2,4.69e5,3.72e5,5.57e5,6.53e5,inactive
Nek2,3,,,,,inactive
woc,1,1.24e5,99859,3.56e5,4.64e5,inactive
Pig1,1,5.75e5,4.69e5,3.94e5,5.73e5,inactive
Tes,1,1.53e5,87253,2.00e6,2.00e6,inactive
Oxp,1,1.31e5,97009,1.68e6,1.68e6,inactive
Phlpp,1,2.70e5,2.29e5,2.65e6,2.04e6,inactive
Phlpp,2,7.71e5,1.17e6,1.20e6,1.66e6,inactive
Phlpp,3,,,,,inactive
RagC-D,1,9.04e5,1.11e6,1.23e6,1.27e6,inactive
Ir7c,1,2.36e5,2.60e5,2.04e6,2.32e6,inactive
CG17652,1,1.23e5,1.14e5,1.08e6,8.93e5,inactive
AdamTS-B,1,3.20e5,3.29e5,3.17e6,3.02e6,inactive
AdamTS-B,2,2.68e5,2.41e5,4.72e5,7.45e5,inactive
CG3847,1,5.89e5,7.64e5,1.90e6,1.71e6,inactive
CG3847,2,59619,45556,6.41e5,3.88e5,inactive
CG3847,3,5.05e5,5.14e5,5.65e5,4.96e5,inactive
pea,1,8.90e5,1.07e6,2.05e6,1.93e6,inactive
pea,2,2.88e5,3.74e5,6.66e5,8.56e5,inactive
tfc,1,72298,81015,2.92e5,3.91e5,inactive
tfc,2,41499,1.15e5,2.35e5,2.99e5,inactive
tfc,3,6.45e5,6.32e5,1.15e6,1.15e6,inactive
tfc,4,7.09e5,7.01e5,3.11e6,2.32e6,inactive
tfc,5,8.58e5,8.22e5,8.28e5,1.00e6,inactive
rdgBbeta,1,1.13e5,91202,2.86e6,2.86e6,inactive
Tim17b,1,7.29e5,7.70e5,1.89e6,2.00e6,inactive
Gsc,1,88046,1.04e5,3.98e5,5.41e5,inactive
Gsc,2,5.49e5,4.44e5,5.98e5,4.42e5,inactive
CG6654,1,66288,60922,6.55e5,5.22e5,inactive
CG31697,1,7.53e5,6.91e5,2.32e6,1.75e6,inactive
gcm2,1,78940,95521,7.65e5,7.76e5,inactive
gcm2,2,7.65e5,6.66e5,1.21e6,1.38e6,inactive
CG40298,1,4.92e5,5.92e5,1.51e6,1.36e6,inactive
CG9360,1,3.52e5,3.64e5,3.61e6,3.60e6,inactive
lncRNA:CR31781,1,8.34e5,5.87e5,2.50e6,2.83e6,inactive
lncRNA:CR31781,2,1.51e5,1.67e5,1.36e6,9.51e5,inactive
CG31141,1,1.07e5,78590,2.19e5,3.53e5,inactive
CG31141,2,3.11e5,2.75e5,1.09e6,1.09e6,inactive

Hits, among the entries above:
gene knocked down,reagent,"firefly reporter light, replicate 1","firefly reporter light, replicate 2","Renilla control light, replicate 1","Renilla control light, replicate 2",outcome
jub,1,7677,10572,1.13e5,1.86e5,active
